# Experimental data reported in PMC9112550, “Optimization of the antimicrobial peptide Bac7 by deep mutational scanning” (BMC Biology, 2022).
# Tested on: E. coli TOP10
# Test: Deep mutational scanning, site-saturation Bac7_1-23 library, intracellular self-screening with NGS
# Assay type: cell-based
# Conditions: site-saturation library, 156,779 variants; rank 1 = most active
# Method: A focused strategy was pursued to generate diversity at positions 5, 18, 19, and 20 in the Bac7_1-23 peptide. […] Degeneration was introduced by using the QuikChange technique, amplifying the pBAD plasmid containing the Bac7_1-23 gene using a mixture of 20 oligonucleotides (Additional file 1: Table S1) at a final concentration of 0.3 μM and Phusion® High-Fidelity PCR Master Mix in HF buffer. The amplification was performed using 20 cycles of 98°C for 10 s, 60°C for 15 s, and 72°C for 10 s. The PCR product was treated with the enzyme Dpn1 to remove the template plasmid and subsequently purified. The purified product was used to transform 20 μl of CloneCatcher™ Gold DH5G Electrocompetent E. coli (Genlantis, Burlington, USA) cells using electroporation.
# To assess the antimicrobial activity of multiple peptides in parallel when expressed intracellularly in E. coli TOP10, previously prepared aliquots containing E. coli plasmid libraries created by either random mutagenesis or site-saturation mutagenesis were used. For both approaches, three aliquots containing approximately 500 million cells each of E. coli TOP10 harboring peptide-encoding DNA sequences on the pBAD plasmid were thawed and added to three 1-l baffled shake flasks containing 100 ml of LB medium + 100 μg ml^−1 carbenicillin. The cultures were grown for roughly 7 h at 37°C.
sequence,measurement,value
RRIRPRPPRLPRPRPRPYMKPRP [site-saturation library peptide ID 127525],Rank by antimicrobial activity,1
